The other results are listed elsewhere or left out.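 The calls were made as follows: active = dose-dependent thermal stabilisation significant by F-test of dose-response against flat model at 10% FDR; inactive = not significant.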
Compound: Nc1nc2c(ncn2[C@@H]2O[C@H](COP(=O)(O)OP(=O)(O)OP(=O)(O)O)[C@@H](O)[C@H]2O)c(=O)[nH]1
Experiment: dose-dependent thermal stabilisation call (2D-TPP, DLPTP, 10% FDR) (binary (1 = stabilised)); higher = stabilised by the compound
Conditions: system: Jurkat gel-filtered lysate; concentration range 1-500 µM

Sequences of proteins named here, by UniProt entry; tags and fusion partners are left off. A change or cut given only in a name is not applied to a line headed by its entry.
UniProt A8MWD9, whole entry: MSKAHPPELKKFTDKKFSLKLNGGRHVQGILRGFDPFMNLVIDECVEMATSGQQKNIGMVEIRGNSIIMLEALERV
UniProt Q8IYB8: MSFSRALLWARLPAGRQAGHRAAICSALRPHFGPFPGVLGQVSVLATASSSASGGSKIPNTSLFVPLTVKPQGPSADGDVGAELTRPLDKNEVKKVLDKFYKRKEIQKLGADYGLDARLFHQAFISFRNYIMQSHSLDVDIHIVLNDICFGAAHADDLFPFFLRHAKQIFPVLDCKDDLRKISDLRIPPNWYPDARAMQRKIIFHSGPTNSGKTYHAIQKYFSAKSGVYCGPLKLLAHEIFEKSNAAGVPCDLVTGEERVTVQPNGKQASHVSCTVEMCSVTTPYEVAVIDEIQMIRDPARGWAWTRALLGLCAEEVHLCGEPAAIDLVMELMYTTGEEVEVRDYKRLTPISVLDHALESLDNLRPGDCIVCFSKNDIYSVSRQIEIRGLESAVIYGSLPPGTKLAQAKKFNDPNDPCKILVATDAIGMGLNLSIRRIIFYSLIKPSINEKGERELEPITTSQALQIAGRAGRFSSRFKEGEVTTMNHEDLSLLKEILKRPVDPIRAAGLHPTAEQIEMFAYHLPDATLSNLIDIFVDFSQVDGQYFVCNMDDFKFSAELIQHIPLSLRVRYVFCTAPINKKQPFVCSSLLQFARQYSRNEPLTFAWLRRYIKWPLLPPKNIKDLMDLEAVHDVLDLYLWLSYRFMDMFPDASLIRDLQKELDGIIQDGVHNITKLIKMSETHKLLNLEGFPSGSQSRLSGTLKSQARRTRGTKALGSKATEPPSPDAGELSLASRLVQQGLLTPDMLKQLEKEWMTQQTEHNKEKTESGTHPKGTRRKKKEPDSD
UniProt Q96H20: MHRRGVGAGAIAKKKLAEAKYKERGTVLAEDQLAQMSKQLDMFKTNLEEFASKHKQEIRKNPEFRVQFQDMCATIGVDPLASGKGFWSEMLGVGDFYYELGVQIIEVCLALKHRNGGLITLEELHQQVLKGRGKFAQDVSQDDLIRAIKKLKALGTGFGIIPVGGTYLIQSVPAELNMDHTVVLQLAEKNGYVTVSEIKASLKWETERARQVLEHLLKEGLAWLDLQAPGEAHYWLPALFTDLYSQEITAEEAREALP
UniProt Q15545, whole entry: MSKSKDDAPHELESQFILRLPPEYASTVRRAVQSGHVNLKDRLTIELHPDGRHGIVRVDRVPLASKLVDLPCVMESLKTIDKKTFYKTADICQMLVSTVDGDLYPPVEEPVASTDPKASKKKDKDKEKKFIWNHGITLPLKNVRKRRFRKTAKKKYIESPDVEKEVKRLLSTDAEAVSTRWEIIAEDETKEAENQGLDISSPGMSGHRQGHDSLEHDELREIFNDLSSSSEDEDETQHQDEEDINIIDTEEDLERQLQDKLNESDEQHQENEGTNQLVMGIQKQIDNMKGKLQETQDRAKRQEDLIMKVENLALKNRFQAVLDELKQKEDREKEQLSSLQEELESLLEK
UniProt Q8NBK3: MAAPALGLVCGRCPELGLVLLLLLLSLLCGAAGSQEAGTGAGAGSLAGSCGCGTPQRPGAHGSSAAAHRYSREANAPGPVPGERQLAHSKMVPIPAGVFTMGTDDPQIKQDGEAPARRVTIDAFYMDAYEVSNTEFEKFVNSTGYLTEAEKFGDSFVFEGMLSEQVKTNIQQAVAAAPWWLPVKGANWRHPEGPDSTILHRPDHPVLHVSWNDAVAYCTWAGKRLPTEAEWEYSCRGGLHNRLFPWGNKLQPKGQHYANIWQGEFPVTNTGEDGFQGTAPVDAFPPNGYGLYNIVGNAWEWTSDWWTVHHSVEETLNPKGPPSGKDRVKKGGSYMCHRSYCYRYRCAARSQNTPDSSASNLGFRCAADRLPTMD
UniProt Q15527: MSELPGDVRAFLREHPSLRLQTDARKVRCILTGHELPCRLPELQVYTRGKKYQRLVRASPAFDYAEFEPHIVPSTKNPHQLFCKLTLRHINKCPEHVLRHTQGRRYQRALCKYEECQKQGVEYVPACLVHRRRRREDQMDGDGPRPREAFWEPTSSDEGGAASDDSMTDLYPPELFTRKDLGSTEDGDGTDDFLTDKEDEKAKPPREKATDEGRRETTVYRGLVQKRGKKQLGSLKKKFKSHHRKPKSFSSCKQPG
UniProt Q9NRS6: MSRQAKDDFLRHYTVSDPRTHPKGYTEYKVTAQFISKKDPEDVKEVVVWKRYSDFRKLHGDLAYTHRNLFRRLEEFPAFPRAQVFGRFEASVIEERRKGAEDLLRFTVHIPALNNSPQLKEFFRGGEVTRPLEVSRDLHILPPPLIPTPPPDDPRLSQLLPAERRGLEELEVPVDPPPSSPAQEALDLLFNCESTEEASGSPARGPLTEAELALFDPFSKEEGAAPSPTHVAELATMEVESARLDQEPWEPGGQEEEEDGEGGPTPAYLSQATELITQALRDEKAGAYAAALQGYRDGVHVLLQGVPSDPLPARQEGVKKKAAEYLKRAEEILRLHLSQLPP
UniProt Q7Z7C8, whole entry: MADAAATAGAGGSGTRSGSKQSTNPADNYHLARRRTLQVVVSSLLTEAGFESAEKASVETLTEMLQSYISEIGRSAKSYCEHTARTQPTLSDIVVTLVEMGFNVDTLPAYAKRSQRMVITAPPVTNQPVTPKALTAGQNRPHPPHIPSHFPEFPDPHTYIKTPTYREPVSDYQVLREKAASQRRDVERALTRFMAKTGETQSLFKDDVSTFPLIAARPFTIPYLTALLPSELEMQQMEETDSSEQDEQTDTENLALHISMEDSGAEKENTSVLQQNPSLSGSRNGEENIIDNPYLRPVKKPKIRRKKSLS
UniProt Q8TEQ0: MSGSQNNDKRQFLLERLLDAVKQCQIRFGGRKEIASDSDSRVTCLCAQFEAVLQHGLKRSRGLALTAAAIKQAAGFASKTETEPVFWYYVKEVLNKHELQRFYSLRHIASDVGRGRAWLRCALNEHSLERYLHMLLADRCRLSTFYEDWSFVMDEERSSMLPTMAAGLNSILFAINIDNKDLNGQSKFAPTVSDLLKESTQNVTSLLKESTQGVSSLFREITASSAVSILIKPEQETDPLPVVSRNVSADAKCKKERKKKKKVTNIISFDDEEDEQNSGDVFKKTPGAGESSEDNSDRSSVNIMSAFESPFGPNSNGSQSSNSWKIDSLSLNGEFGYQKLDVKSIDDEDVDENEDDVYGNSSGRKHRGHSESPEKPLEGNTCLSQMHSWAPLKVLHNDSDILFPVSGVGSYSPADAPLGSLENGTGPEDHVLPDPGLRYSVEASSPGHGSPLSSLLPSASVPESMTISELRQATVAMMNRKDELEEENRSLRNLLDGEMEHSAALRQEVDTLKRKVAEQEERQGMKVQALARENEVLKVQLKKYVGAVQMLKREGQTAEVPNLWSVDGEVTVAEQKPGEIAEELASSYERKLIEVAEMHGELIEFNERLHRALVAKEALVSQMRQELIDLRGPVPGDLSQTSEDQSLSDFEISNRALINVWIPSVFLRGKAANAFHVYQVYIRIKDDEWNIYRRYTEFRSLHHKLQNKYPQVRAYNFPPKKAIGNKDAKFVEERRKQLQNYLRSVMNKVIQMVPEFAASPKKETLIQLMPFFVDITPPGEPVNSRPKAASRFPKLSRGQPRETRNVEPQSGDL
UniProt Q8IXJ6: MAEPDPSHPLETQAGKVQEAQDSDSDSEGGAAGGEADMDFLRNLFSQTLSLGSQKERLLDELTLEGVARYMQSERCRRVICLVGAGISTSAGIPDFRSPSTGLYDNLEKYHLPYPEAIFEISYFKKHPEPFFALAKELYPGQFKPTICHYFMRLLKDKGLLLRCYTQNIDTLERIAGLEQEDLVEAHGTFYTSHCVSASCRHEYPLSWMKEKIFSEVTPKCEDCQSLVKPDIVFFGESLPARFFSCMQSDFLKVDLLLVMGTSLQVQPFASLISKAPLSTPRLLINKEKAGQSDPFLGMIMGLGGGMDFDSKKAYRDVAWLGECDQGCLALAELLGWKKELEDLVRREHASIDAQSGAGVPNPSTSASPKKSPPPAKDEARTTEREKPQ
UniProt Q01082, whole entry: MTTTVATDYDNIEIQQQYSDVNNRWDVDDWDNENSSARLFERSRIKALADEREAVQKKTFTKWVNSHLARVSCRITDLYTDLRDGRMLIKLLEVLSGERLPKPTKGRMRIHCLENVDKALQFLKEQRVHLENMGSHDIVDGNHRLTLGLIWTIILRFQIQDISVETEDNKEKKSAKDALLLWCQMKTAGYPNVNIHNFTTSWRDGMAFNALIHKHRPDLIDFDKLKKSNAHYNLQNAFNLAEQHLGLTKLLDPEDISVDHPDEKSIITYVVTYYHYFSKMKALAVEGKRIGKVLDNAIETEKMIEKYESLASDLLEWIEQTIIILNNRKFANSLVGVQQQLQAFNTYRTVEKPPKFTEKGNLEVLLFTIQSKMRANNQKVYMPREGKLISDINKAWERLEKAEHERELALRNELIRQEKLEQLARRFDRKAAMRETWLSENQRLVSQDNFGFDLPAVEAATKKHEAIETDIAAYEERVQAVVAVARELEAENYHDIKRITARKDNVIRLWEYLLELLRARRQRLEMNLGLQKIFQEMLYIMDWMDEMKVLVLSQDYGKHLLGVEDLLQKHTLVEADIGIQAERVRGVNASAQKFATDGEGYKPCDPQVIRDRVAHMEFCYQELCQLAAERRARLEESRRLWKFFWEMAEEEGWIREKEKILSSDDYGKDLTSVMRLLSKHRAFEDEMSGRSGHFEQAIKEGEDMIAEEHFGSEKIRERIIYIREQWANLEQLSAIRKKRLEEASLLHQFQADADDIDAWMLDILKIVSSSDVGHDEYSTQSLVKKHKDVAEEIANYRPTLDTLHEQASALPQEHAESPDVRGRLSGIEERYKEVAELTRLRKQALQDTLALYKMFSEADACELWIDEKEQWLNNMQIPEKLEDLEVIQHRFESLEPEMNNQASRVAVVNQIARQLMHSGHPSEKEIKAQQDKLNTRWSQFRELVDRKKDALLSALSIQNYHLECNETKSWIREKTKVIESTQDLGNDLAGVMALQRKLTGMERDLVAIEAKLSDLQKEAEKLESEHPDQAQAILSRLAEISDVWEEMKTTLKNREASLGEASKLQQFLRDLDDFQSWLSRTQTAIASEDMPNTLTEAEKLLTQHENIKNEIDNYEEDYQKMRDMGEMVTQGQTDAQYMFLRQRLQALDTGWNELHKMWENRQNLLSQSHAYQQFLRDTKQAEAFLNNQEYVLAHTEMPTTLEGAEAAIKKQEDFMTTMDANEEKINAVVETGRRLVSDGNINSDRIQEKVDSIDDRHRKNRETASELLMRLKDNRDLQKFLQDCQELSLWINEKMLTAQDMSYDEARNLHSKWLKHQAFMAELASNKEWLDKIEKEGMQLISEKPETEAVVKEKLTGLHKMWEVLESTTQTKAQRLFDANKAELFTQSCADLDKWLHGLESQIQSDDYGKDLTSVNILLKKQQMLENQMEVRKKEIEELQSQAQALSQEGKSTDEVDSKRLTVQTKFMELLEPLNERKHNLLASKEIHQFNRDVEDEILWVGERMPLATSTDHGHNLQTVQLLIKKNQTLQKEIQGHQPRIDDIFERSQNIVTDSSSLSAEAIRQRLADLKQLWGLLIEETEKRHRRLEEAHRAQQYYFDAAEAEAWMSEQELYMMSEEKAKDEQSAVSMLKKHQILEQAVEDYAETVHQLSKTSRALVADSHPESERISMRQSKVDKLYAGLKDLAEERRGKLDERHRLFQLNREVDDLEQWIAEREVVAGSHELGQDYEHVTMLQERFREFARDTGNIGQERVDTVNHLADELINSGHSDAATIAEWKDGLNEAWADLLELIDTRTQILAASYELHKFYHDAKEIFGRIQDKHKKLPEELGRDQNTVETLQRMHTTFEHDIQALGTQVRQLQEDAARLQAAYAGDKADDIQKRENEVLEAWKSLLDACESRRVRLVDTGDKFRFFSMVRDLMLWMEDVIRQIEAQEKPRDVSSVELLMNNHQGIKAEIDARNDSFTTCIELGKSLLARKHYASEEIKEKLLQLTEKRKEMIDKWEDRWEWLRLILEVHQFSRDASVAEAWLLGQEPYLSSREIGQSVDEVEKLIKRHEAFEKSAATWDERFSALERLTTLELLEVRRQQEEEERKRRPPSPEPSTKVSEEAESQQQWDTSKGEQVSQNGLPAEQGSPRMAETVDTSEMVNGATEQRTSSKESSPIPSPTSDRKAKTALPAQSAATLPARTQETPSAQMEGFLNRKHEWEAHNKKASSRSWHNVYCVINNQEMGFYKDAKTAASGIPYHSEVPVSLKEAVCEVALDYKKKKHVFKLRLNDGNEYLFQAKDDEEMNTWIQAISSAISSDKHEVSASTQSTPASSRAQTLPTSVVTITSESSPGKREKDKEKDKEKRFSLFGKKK
UniProt P55769: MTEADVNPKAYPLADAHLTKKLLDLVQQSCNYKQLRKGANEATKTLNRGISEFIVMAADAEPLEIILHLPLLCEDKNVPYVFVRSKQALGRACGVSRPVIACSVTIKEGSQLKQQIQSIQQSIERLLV
UniProt O95295: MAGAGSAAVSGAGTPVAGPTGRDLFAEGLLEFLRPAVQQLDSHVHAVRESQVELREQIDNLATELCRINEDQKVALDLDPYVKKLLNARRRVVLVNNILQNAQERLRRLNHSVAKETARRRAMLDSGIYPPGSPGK

Question: For SNRPGP15 (UniProt A8MWD9), which “dose-dependent thermal stabilisation call” value is on record?
Answer: The value was inactive: 0.

Question: How did the “dose-dependent thermal stabilisation call” value turn out when SPR (UniProt P35270) was run?
Answer: The value was inactive: 0.

Question: How did the “dose-dependent thermal stabilisation call” value turn out when SHKBP1 (UniProt Q8TBC3) was run?
Answer: The value was active: 1.

Question: SUPV3L1 (UniProt Q8IYB8) was tested. Which “dose-dependent thermal stabilisation call” value did it give?
Answer: The value was inactive: 0.

Question: For SNF8 (UniProt Q96H20), which “dose-dependent thermal stabilisation call” value is on record?
Answer: The value was inactive: 0.

Question: TACC3 (UniProt Q9Y6A5) was tested. Which “dose-dependent thermal stabilisation call” value did it give?
Answer: Its value is inactive: 0.

Question: With SMCR8 (UniProt Q8TEV9) as the target, how does the “dose-dependent thermal stabilisation call” value read?
Answer: The value was inactive: 0.

Question: SKI (UniProt P12755) was tested. Which “dose-dependent thermal stabilisation call” value did it give?
Answer: The value was inactive: 0.

Question: With SRPRA (UniProt P08240) as the target, how does the “dose-dependent thermal stabilisation call” value read?
Answer: The value was active: 1.

Question: For TAF7 (UniProt Q15545), which “dose-dependent thermal stabilisation call” value is on record?
Answer: Its value is inactive: 0.

Question: SSBP1 (UniProt Q04837) was tested. Which “dose-dependent thermal stabilisation call” value did it give?
Answer: The value was inactive: 0.

Question: How did the “dose-dependent thermal stabilisation call” value turn out when SNX8 (UniProt Q9Y5X2) was run?
Answer: The value was inactive: 0.

Question: SNRPA1 (UniProt P09661) was tested. Which “dose-dependent thermal stabilisation call” value did it give?
Answer: The value was inactive: 0.

Question: Which “dose-dependent thermal stabilisation call” value does the source give for SUMF1 (UniProt Q8NBK3) here?
Answer: Its value is inactive: 0.

Question: Which “dose-dependent thermal stabilisation call” value does the source give for SURF2 (UniProt Q15527) here?
Answer: Its value is active: 1.

Question: Which “dose-dependent thermal stabilisation call” value does the source give for SMCHD1 (UniProt A6NHR9) here?
Answer: The value was inactive: 0.

Question: How did the “dose-dependent thermal stabilisation call” value turn out when SNX15 (UniProt Q9NRS6) was run?
Answer: The value was inactive: 0.

Question: How did the “dose-dependent thermal stabilisation call” value turn out when STAT2 (UniProt P52630) was run?
Answer: The value was active: 1.

Question: Which “dose-dependent thermal stabilisation call” value does the source give for SKAP1 (UniProt Q86WV1) here?
Answer: Its value is inactive: 0.

Question: For TAF8 (UniProt Q7Z7C8), which “dose-dependent thermal stabilisation call” value is on record?
Answer: Its value is inactive: 0.

Question: How did the “dose-dependent thermal stabilisation call” value turn out when SLC4A4 (UniProt Q9Y6R1) was run?
Answer: Its value is inactive: 0.

Question: For SNX29 (UniProt Q8TEQ0), which “dose-dependent thermal stabilisation call” value is on record?
Answer: Its value is inactive: 0.

Question: SIRT2 (UniProt Q8IXJ6) was tested. Which “dose-dependent thermal stabilisation call” value did it give?
Answer: The value was inactive: 0.

Question: How did the “dose-dependent thermal stabilisation call” value turn out when SPTBN1 (UniProt Q01082) was run?
Answer: The value was inactive: 0.

Question: SNU13 (UniProt P55769) was tested. Which “dose-dependent thermal stabilisation call” value did it give?
Answer: Its value is inactive: 0.

Question: Which “dose-dependent thermal stabilisation call” value does the source give for SNAPIN (UniProt O95295) here?
Answer: The value was inactive: 0.

Question: How did the “dose-dependent thermal stabilisation call” value turn out when SMNDC1 (UniProt O75940) was run?
Answer: Its value is inactive: 0.

Reference: the supplement of paper PMC7666118
